# Laboratory results published in US9487546B2, “Solid forms of tenofovir” (Gilead Sciences, Inc., priority 2014, dated 2016).
# Assay: Filtration time in the plant demonstration
structure (smiles),measurement,setting,value
C[C@H](Cn1cnc2c(N)ncnc21)OCP(=O)(O)O [Form 2431-HC-1P],Filtration Time,"plant demonstration, 146 kg starting material input",11 h
same,filtration time relative to average filtration time of the 40 batches,"plant scale, contract manufacturing organization",approximately ⅓
